This is one part of the list. Further columns of the screen follow, without active or inactive calls. Most of these compounds were active or inconclusive in the main read-out, so they are no random draw. The note in brackets gives the kind of curve behind each potency; many fits are weak.

Data on 62 compounds can be found in PubChem BioAssay AID2685 (National Center for Advancing Translational Sciences (NCATS), 2010).

A short description of this test: qHTS Assay for Lipid Storage Modulators in Drosophila S3 Cells.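 On cell number change: cells counted by Cell Tracker Red CMTPX staining in the red channel.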 The conditions noted are these: BODIPY lipid droplet fluorescence, 18-24 h; for cell number change: measured here: cell count max response, cells fed with added oleic acid. The procedure, abridged: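 Drosophila S3 cells loaded with oleic acid (400 uM, as added) and compounds at several concentrations; lipid droplets imaged by 488-nm laser-scanning cytometry, 500–530 nm intensity and object ratio to cell channel. Percent activity normalized to 20 uM Triacsin C.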
For orientation: In qHTS, concentration-response curves come from the screen itself.

Where [1] appears, read: measured here: lipid fluorescence (Fed channel) AC50, cells fed with added oleic acid.
Setting [2] is: measured here: cell number channel AC50, cells fed with added oleic acid.

One may read the AC50 as the concentration at which the activity in the assay is half-maximal. High values mean weaker potency, low ones greater potency. Take `O=C(Oc1ccc(C(=S)N2CCOCC2)cc1)c1ccccc1`: the cell number change was -14.2%. Under setting [1], the half-maximal activity concentration (AC50) is 0.00651 µM [falling, full curve, poor fit].

Turning to `CCN(CC)C(=O)Cn1cnc2sc(C(=O)N3CCN(c4ccc(OC)cc4)CC3)c(C)c2c1=O`, the cell number change is 15.2%. Moreover, the AC50 under setting [2] was 2.06 µM [falling, partial curve]. Further, the AC50 under setting [1] is 0.82 µM [falling, full curve].

With `COC(=O)c1c(NC(=O)Cc2ccccc2)sc2c1CC(C)(C)NC2(C)C`, the cell number change stood at 1.8%. Further, the AC50 under setting [1] is 2.06 µM [rising, partial curve].

For the compound `O=C(CN1CCOCC1)NC1CC2CCC1C2` (stereo unspecified), the AC50 by setting is: under setting [2], 6.51 µM [falling, partial curve, poor fit]; under setting [1], 3.26 µM [falling, partial curve, poor fit].

Turning to `O=C(O)CSc1nnc(COc2cccc3ccccc23)n1Cc1ccccc1`, the cell number change is -18.8%. Also, the AC50 under setting [2] is 2.59 µM [falling, single point].

As to `O=C(c1cccc(S(=O)(=O)NCc2ccccc2)c1)N1CCN(c2cccc(C(F)(F)F)c2)CC1`, the cell number change stood at 0.242%. Further, the AC50 under setting [1] was 29.1 µM [falling, single point].

Regarding `Nc1ccc(CSc2ccc(Cl)cc2)cc1`, the cell number change was determined as 26.5%. Besides, the concentration at half-maximal activity (AC50) under setting [1] is 6.51 µM [falling, single point].

Regarding `Cc1ccccc1OCC(=O)OC(C)CN1CCN(C)CC1` (stereo unspecified), the cell number change stood at 10.2%.

On to `CCCCOc1ccc(Cc2n[nH]c(=S)n2N)cc1`, for which the cell number change is -11.7%.

As to `O=[N+]([O-])c1ccc(N2CCN(c3nc(-c4ccc(Cl)cc4)cs3)CC2)cc1`, the cell number change turned out to be 16.6%. For the same compound, the AC50 under setting [1] was 0.92 µM [falling, single point].

Consider `Cn1cccc1C(=O)NNC(=O)COc1ccc(C#N)cc1`, for which the cell number change was -14.9%.

Consider `O=C(Cc1ccc(Br)cc1)NCCCn1ccnc1`, for which the cell number change was 40.7%. Moreover, the concentration at half-maximal activity (AC50) under setting [2] was 13 µM [rising, partial curve, poor fit].

Turning to `COc1ccc(C(=O)c2ccc(Cl)cc2)cc1`, the cell number change worked out at 15.5%.

In the case of `Cc1ccc(C(=O)Nc2cc(Cl)ccc2-n2cncn2)s1`, the concentration at half-maximal activity (AC50) is 0.00461 µM [rising, full curve, poor fit] under setting [2] and 0.00461 µM [rising, full curve, poor fit] under setting [1].

As for `O=S(=O)(NNc1ccc(Cl)nn1)c1ccc(F)cc1`, the cell number change was 58.6%. For the same compound, the concentration at half-maximal activity (AC50) under setting [2] was 18.4 µM [rising, single point]. Also, the AC50 under setting [1] is 16.4 µM [rising, partial curve].

Turning to `COc1ccc2c(c1)N1CCN=C1N2C`, the cell number change worked out at 0.336%.

Take `Cc1cc(C)c(C#N)c(SCCS(=O)(=O)c2ccc(Cl)cc2)n1`: the cell number change amounted to 8.92%. Also, the concentration at half-maximal activity (AC50) under setting [1] is 3.66 µM [rising, single point].

For the compound `O=C(CCc1c[nH]c2ccccc12)NCCc1ccc2c(c1)OCCO2`, the cell number change amounted to 5.13%. Further, the AC50 under setting [1] was 5.17 µM [falling, single point].

For `CCCCN(Cc1ccco1)C(=O)Cn1ncc2c(=O)oc3ccc(C)cc3c21`, the cell number change is 29.8%. For the same compound, under setting [2], the AC50 is 0.206 µM [rising, full curve, poor fit].

On to `COc1ccc(OC(C)C(=O)Nc2cccc(F)c2)cc1` (stereo unspecified), for which the cell number change was 6.99%. Also, the AC50 under setting [1] was 14.6 µM [rising, partial curve, poor fit].

As to `CCOc1ccc(C(=O)Nc2cccc(-c3nc4ccccc4[nH]3)c2C)cc1[N+](=O)[O-]`, the cell number change is -33.6%. Also, the half-maximal activity concentration (AC50) under setting [2] was 1.46 µM [falling, partial curve, poor fit]. Moreover, the half-maximal activity concentration (AC50) under setting [1] is 7.31 µM [falling, partial curve, poor fit].

Turning to `CCCn1c(SCC(=O)Nc2ccccc2-c2ccccc2)nnc1-c1ccoc1C`, the cell number change was -0.612%. For the same compound, the half-maximal activity concentration (AC50) under setting [1] was 2.06 µM [rising, partial curve].

Consider `COCCN(C(=O)c1snc(C(N)=O)c1N)C(C(=O)NC1CCCCC1)c1ccc(F)cc1` (stereo unspecified), for which the cell number change is -13.9%.

Consider `O=C(NNC(=O)c1cccc2ccccc12)c1ccco1`, for which the cell number change was 10.3%. Moreover, the half-maximal activity concentration (AC50) under setting [1] was 29.1 µM [rising, single point].

Take `COc1ccccc1/C=C(/C(=O)OCC(N)=O)c1ccccc1`: the cell number change was found to be 40.7%. Further, under setting [2], the AC50 was 32.6 µM [rising, single point]. The AC50 under setting [1] was 29.1 µM [rising, single point].

With `COc1ccc(CNC(=O)C(=O)NCC2CCCO2)cc1` (stereo unspecified), the cell number change amounted to 18.2%. Besides, the AC50 under setting [1] is 2.06 µM [falling, partial curve].

Consider `COc1ccc2cc(CN(CCCN3CCOCC3)Cc3nnnn3C3CCCCC3)c(=O)[nH]c2c1`, for which the cell number change is -31.7%. Besides, under setting [2], the half-maximal activity concentration (AC50) is 5.17 µM [falling, full curve, poor fit].

`CCCCNC(=O)CSc1nc2ccsc2c(=O)n1CCCC(=O)NCCc1ccc(S(N)(=O)=O)cc1`: the cell number change was -35%. Moreover, the AC50 under setting [2] was 29.1 µM [falling, single point]. Further, the concentration at half-maximal activity (AC50) under setting [1] was 29.1 µM [falling, single point].

In the case of `S=C(Nc1ccc(Cl)cc1)N(CCCN1CCOCC1)Cc1cccs1`, the cell number change came to 13%. The concentration at half-maximal activity (AC50) under setting [1] is 20.6 µM [rising, partial curve].

`CC(C(=O)Nc1ccc(S(=O)(=O)N2CCCC2)cc1)N1CCc2ccccc2C1` (stereo unspecified): the cell number change is -25.9%. Besides, the concentration at half-maximal activity (AC50) under setting [1] is 23.1 µM [falling, partial curve].

On to `Cc1cc(N2CC(C)OC(C)C2)nc2ccccc12` (stereo unspecified), for which the concentration at half-maximal activity (AC50) under setting [1] was 0.0517 µM [rising, full curve, poor fit].

In the case of `O=[N+]([O-])c1ccc(C2=Nn3cnnc3SC2)cc1`, the cell number change is -18.2%. Also, the concentration at half-maximal activity (AC50) under setting [2] was 1.84 µM [falling, partial curve].

Turning to `NC(=O)CC(NC(=O)OCc1ccccc1)C(=O)O` (stereo unspecified), the cell number change worked out at 12.3%.

In the case of `CSc1ncc(Cl)c(C(=O)Nc2ccccc2[N+](=O)[O-])n1`, the cell number change was -8.07%. Under setting [1], the AC50 is 29.1 µM [falling, single point].

`OCCC1CCCCN1CC(O)COCc1ccc(Cl)cc1` (stereo unspecified): the cell number change was -5.22%. Further, the AC50 under setting [1] was 6.51 µM [rising, single point].

As to `O=C(Nc1ccc(F)cc1)Nc1nnc(Cc2ccccc2F)s1`, the cell number change was -0.88%. Also, the concentration at half-maximal activity (AC50) under setting [1] was 11.6 µM [falling, partial curve].

With `CCOC(=O)Cc1cc(-c2ccc(O)cc2)nc2ccc3ccccc3c12`, the cell number change is -7.68%. Also, the half-maximal activity concentration (AC50) under setting [1] was 18.4 µM [falling, single point].

With `Cc1ccc(C)c(S(=O)(=O)N2CCCC2CNC(=O)C(=O)NCc2ccco2)c1` (stereo unspecified), the cell number change was 83.9%.

On to `O=C(O)C1C2C=CC(C2)C1C(=O)OC1CC2CCC1C2` (stereo unspecified), for which the cell number change was -12.2%. Besides, the concentration at half-maximal activity (AC50) under setting [1] is 3.66 µM [falling, partial curve].

In the case of `N#C/C(=C\c1cccnc1)C(=O)NC1CCCCC1`, under setting [1], the AC50 was 3.66 µM [falling, partial curve].

As to `COC(=O)CCCC1=CC2=C(c3ccccc3)C(=O)C(C)(OC(=O)C3CCCC3)C(=O)C2=CN1c1ccccc1` (stereo unspecified), the cell number change was -24%. The half-maximal activity concentration (AC50) under setting [1] was 14.6 µM [falling, partial curve, poor fit].

As to `NC(N)=NN=C1CCC(c2ccccc2)CC1` (stereo unspecified), the cell number change was determined as 17.1%. Besides, the AC50 under setting [1] is 1.16 µM [rising, single point].

For `COc1cc2c(cc1OC)CN(C(C)C(=O)Nc1ccc(NC(C)=O)cc1)CC2` (stereo unspecified), the cell number change was -48.8%. For the same compound, the half-maximal activity concentration (AC50) under setting [2] was 10.3 µM [falling, partial curve].

Consider `CC1(C)C2CCC(C2)C1(C)N=C1OC(CCl)CS1` (stereo unspecified), for which the cell number change is -29.1%. Further, under setting [1], the AC50 was 29.1 µM [falling, single point].

In the case of `CC1(C)CC(=O)C(C(O)c2ccc([N+](=O)[O-])cc2)C(C)(C)N1` (stereo unspecified), the cell number change came out at 2.78%. For the same compound, the half-maximal activity concentration (AC50) under setting [2] is 0.651 µM [rising, single point].

Turning to `COc1ccc(C(=O)c2c(O)cc(-c3ccc(OC)cc3)oc2=O)cc1`, the concentration at half-maximal activity (AC50) reads like this: under setting [2], 1.03 µM [falling, partial curve]; under setting [1], 0.651 µM [falling, single point].

Take `COc1cc(NC(=S)N2c3ccccc3CC2C)cc(OC)c1` (stereo unspecified): the cell number change stood at 13.6%. Moreover, the half-maximal activity concentration (AC50) under setting [1] was 0.651 µM [rising, partial curve, poor fit].

For the compound `Cc1ccc(/C=C/C(=O)NCc2ccco2)o1`, the cell number change was 5.91%. Moreover, under setting [1], the AC50 is 0.731 µM [rising, single point].

`Cc1ccccc1N1CCN(C(=O)CN2C(=O)c3ccccc3C2=O)CC1`: the cell number change came to 10.6%.

For `CCOC(=O)c1c(-c2ccc(C)cc2)csc1/N=C/N(C)C`, the cell number change was -4.78%. Moreover, the AC50 under setting [1] was 6.51 µM [falling, single point].

`Cc1c([N+](=O)[O-])cc(C(=O)Nc2ccc(NC(=O)c3ccco3)cc2)cc1[N+](=O)[O-]`: the cell number change was 10.8%.

Regarding `O=C(Nc1cccnc1)c1ccc(COc2ccccc2Br)o1`, the AC50 under setting [1] is 0.116 µM [falling, full curve, poor fit].

`O=C(Nc1cccnc1)c1cc2cc(Br)ccc2o1`: the cell number change is 4.74%.

In the case of `Cn1nc(C(=O)Nc2cccc(Cl)c2)cc1C(=O)Nc1cccc(Cl)c1`, the cell number change was found to be 39.4%. Besides, under setting [2], the AC50 is 29.1 µM [rising, single point].

Take `O=C(NCCc1ccccc1)Oc1ccc(Cl)cc1`: the cell number change came to 1.23%. Besides, under setting [1], the AC50 was 7.31 µM [rising, partial curve, poor fit].

With `c1ccc(OCCOCCN2CCN(C(c3ccccc3)c3ccccc3)CC2)cc1`, the cell number change is -58.2%. For the same compound, the half-maximal activity concentration (AC50) under setting [2] is 29.1 µM [falling, single point]. Moreover, the concentration at half-maximal activity (AC50) under setting [1] was 29.1 µM [falling, single point].

Regarding `COc1ccc2[nH]c(C)c(CCN(Cc3cccs3)C(=S)Nc3ccccc3)c2c1`, the AC50 is 0.092 µM [rising, full curve] under setting [2] and 0.13 µM [rising, full curve, poor fit] under setting [1].

Regarding `O=C(NCC(=O)N1CC=C(c2ccccc2)CC1)c1ccco1`, the cell number change is -41.1%. The half-maximal activity concentration (AC50) under setting [2] was 0.13 µM [falling, full curve, poor fit]. For the same compound, under setting [1], the AC50 is 6.51 µM [rising, single point].

Turning to `C=CCn1c(SCC(=O)NC2CC2)nnc1-c1ccccn1`, the cell number change was -22.1%. Under setting [1], the AC50 is 23.1 µM [rising, single point].

For the compound `O=C(COC(=O)c1cnc(Cl)c(Cl)c1)NCCC1=CCCCC1`, the cell number change is -26.8%.

`COc1ccc(OC)c(S(=O)(=O)N2CCC3(CC2)CC(=O)c2ccccc2O3)c1`: the cell number change is -12%. For the same compound, the concentration at half-maximal activity (AC50) under setting [1] was 11.6 µM [falling, partial curve].

In the case of `COc1ccc(CC(=O)OCC(=O)c2c[nH]c3ccccc23)cc1`, the cell number change was -7.09%. The AC50 under setting [1] was 6.51 µM [rising, full curve].
